Assay results reported in publication PMC3660581.
Results are given in words; binding and its absence hold for the method and conditions named. Binding seen in cells or lysates may run through a third protein. Some entries that bind do so weakly or less than the wild type.

Tests used:
[1] = target: T1, apolipoprotein O-like protein (APOOL) (human (endogenous in HeLa)) (UniProt Q6UXV4); experiment: co-IP; endogenous proteins; HeLa mitochondria (250 µg) solubilized with digitonin (detergent:protein 4:1) at 4°C; 1 µg antibody against APOOL or Mitofilin, or preimmune serum, protein A beads; washed with PBS, 0.01% digitonin; eluted with 0.1 M citric acid; western blot
T1 sequence: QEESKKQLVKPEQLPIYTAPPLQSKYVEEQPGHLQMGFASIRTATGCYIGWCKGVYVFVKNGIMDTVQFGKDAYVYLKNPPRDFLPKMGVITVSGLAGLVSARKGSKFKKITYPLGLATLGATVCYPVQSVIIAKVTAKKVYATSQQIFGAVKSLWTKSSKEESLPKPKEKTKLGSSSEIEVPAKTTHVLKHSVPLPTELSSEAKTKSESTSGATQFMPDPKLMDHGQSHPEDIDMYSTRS

[2] = target: T2, Mitofilin (human (endogenous in HeLa)) (UniProt Q16891); experiment: as above
T2 sequence: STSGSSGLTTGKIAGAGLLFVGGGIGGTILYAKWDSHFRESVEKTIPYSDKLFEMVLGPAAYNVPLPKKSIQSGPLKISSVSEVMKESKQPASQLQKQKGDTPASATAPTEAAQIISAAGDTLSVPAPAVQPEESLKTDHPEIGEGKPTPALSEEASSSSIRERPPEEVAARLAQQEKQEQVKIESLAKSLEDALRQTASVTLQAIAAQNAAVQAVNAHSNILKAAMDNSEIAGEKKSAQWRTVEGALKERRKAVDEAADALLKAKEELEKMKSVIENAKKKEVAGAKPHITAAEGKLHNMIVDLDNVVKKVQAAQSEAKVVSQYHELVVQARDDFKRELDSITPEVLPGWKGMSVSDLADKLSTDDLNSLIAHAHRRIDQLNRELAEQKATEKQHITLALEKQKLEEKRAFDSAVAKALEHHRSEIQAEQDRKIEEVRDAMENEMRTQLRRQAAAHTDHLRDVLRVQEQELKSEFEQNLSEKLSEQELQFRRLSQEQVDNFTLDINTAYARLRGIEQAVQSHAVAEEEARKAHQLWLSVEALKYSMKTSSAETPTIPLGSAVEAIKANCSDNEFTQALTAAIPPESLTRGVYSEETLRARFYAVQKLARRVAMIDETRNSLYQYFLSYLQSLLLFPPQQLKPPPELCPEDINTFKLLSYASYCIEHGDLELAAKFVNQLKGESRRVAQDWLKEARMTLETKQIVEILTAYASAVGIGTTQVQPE

B1: sorting and assembly machinery component 50 (SAMM50) (protein, UniProt Q9Y512 1-469)
chain: MGTVHARSLEPLPSSGPDFGGLGEEAEFVEVEPEAKQEILENKDVVVQHVHFDGLGRTKDDIIICEIGDVFKAKNLIEVMRKSHEAREKLLRLGIFRQVDVLIDTCQGDDALPNGLDVTFEVTELRRLTGSYNTMVGNNEGSMVLGLKLPNLLGRAEKVTFQFSYGTKETSYGLSFFKPRPGNFERNFSVNLYKVTGQFPWSSLRETDRGMSAEYSFPIWKTSHTVKWEGVWRELGCLSRTASFAVRKESGHSLKSSLSHAMVIDSRNSSILPRRGALLKVNQELAGYTGGDVSFIKEDFELQLNKQLIFDSVFSASFWGGMLVPIGDKPSSIADRFYLGGPTSIRGFSMHSIGPQSEGDYLGGEAYWAGGLHLYTPLPFRPGQGGFGELFRTHFFLNAGNLCNLNYGEGPKAHIRKLAECIRWSYGAGIVLRLGNIARLELNYCVPMGVQTGDRICDGVQFGAGIRFL
In the case of B1, the binding [1] is reported as “binds” and the binding [2] is reported as “binds”.
